# Results: paper doi:10.1101/432989 (bioRxiv, 2018)
# T1: MazE-mt9 with N-terminal 8 x His-tag, co-expressed with MazF-mt9 (Mycobacterium tuberculosis H37Rv) (UniProt P9WJ85)
# T1 sequence: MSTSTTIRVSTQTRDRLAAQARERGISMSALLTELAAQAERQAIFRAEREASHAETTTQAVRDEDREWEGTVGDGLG
# T2: MazE-mt1 with N-terminal 8 x His-tag, co-expressed with MazF-mt9 (Mycobacterium tuberculosis H37Rv) (UniProt P0CL61)
# T2 sequence: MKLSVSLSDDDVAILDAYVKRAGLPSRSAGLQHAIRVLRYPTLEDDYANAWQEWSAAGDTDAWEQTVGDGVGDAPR
# Experiments:
# [1] = target: T1, MazE-mt9 with N-terminal 8 x His-tag, co-expressed with MazF-mt9 (Mycobacterium tuberculosis H37Rv); test: pull-down
# [2] = target: T2, MazE-mt1 with N-terminal 8 x His-tag, co-expressed with MazF-mt9 (Mycobacterium tuberculosis H37Rv); test: pull-down
# [3] = target: MazF-mt9 (Mycobacterium tuberculosis); test: crystal structure
Molecule,binding [1],binding [2],binding [3]
MazF-mt9 co-expressed with a MazE from pETDuet1 (Mycobacterium tuberculosis) (enzyme),no binding,binds,
MazE-mt9 (natural protein) MSTSTTIRVSTQTRDRLAAQARERGISMSALLTELAAQAERQAIFRAEREASHAETTTQAVRDEDREWEGTVGDGLG,,,binds

# Results are given in words; binding and its absence hold for the method and conditions named. For part of these data: A result given as binding can be weak or reduced; the word gives no strength. For part of these data: In cells and extracts the contact can be indirect. For part of these data: Sequences can lack the tags named with a protein.
